From the supplement of paper PMC10849652
Some of the results follow.

Sequences of proteins named here, by UniProt entry; tags and fusion partners are left off. A change or cut given only in a name is not applied to a line headed by its entry.
UniProt Q96P48: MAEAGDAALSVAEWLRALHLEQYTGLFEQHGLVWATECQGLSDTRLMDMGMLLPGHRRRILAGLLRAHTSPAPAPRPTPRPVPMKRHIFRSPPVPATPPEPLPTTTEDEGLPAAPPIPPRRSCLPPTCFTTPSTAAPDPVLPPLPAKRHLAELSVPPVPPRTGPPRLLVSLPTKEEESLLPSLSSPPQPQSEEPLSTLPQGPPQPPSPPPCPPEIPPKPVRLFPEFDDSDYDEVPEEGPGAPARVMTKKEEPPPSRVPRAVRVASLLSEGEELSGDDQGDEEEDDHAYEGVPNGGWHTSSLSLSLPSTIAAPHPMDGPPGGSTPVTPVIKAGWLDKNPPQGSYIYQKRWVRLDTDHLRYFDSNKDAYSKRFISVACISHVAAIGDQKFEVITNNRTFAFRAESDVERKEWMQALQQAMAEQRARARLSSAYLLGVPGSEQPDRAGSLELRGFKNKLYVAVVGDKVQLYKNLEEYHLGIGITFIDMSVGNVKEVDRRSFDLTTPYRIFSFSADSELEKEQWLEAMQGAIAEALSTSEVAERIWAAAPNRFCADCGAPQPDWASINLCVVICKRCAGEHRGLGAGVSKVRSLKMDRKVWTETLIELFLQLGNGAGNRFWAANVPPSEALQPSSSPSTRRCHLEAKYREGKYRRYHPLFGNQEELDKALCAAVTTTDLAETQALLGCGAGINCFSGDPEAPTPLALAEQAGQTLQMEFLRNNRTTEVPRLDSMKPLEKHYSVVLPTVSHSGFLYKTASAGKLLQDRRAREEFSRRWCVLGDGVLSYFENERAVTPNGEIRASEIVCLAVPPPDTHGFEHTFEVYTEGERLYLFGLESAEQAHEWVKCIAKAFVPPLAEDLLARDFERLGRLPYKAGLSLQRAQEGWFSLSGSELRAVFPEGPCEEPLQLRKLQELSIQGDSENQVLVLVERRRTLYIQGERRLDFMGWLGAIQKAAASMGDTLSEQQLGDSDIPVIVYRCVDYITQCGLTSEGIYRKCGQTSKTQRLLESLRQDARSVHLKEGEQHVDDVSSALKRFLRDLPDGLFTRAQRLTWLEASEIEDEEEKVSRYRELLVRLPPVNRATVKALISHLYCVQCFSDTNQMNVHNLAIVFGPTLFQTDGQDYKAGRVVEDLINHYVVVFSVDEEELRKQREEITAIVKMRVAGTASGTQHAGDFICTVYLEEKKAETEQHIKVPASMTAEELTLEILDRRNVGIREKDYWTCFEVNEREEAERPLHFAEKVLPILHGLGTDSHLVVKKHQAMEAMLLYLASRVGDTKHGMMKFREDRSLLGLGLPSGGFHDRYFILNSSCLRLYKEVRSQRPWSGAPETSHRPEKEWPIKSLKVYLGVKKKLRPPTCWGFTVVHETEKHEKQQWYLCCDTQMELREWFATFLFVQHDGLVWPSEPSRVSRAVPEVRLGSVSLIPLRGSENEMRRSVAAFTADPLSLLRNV
UniProt Q9NZN5: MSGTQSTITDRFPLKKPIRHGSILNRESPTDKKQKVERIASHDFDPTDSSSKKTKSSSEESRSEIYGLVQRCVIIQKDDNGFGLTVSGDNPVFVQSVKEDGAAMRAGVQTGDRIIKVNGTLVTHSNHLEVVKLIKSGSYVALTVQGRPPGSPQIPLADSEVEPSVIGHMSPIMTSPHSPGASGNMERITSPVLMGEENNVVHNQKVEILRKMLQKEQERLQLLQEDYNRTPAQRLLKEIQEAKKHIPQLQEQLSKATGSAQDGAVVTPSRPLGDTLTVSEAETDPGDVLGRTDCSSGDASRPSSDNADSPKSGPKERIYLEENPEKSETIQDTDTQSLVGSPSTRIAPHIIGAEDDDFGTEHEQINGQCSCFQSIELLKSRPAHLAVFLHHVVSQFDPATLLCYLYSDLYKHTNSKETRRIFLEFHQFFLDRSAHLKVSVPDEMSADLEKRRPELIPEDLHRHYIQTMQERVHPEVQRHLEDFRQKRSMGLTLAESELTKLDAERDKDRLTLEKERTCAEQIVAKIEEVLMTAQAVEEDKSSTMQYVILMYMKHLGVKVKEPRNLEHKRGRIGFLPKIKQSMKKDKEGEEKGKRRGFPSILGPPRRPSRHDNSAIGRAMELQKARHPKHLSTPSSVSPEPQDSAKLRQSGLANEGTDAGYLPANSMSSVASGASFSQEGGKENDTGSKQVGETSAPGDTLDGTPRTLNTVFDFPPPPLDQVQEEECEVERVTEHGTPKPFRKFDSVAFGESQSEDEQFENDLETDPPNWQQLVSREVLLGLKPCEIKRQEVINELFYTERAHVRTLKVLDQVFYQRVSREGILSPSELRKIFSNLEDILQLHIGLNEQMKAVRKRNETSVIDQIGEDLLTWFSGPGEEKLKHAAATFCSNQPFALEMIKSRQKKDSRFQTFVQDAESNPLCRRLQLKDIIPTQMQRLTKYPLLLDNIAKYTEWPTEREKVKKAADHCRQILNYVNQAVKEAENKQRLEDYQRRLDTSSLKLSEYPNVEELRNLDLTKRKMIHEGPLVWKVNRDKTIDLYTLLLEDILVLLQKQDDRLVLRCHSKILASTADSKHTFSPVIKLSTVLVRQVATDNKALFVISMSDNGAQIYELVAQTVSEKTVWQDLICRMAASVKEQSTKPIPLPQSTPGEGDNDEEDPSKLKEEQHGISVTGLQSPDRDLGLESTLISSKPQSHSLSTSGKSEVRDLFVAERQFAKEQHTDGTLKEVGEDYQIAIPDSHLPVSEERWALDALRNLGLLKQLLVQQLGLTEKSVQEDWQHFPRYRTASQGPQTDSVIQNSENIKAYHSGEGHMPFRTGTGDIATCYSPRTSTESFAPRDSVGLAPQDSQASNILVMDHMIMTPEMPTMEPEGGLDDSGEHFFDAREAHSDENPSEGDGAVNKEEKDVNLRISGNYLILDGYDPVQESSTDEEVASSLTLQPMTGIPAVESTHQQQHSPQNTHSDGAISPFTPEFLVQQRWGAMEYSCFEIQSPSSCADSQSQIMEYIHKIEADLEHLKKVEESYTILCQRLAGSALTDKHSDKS
UniProt Q10567: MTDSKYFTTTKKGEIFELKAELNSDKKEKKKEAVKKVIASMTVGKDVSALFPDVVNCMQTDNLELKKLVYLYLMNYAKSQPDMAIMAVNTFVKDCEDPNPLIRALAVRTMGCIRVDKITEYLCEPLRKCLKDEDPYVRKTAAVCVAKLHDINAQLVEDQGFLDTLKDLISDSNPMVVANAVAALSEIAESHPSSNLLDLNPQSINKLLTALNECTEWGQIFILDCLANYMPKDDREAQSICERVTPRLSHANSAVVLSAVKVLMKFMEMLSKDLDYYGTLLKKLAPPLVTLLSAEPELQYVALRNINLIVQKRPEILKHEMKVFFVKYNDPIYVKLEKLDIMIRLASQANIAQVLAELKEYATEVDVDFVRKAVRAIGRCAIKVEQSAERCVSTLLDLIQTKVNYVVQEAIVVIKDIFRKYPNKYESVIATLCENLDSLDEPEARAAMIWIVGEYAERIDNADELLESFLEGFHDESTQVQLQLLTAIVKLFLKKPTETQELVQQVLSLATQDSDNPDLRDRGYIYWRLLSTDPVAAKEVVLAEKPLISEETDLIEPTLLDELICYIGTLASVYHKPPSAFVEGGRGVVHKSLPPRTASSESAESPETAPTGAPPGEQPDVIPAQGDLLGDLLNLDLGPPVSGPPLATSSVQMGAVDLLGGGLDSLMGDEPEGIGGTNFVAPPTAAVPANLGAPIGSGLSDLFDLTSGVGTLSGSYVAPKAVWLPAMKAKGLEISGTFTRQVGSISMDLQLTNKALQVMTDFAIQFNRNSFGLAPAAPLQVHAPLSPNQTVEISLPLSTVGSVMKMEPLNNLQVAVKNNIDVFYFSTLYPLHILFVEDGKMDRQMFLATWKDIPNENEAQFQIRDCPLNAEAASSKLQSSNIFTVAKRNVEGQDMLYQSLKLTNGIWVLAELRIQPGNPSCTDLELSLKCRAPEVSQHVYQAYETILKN
UniProt P20073: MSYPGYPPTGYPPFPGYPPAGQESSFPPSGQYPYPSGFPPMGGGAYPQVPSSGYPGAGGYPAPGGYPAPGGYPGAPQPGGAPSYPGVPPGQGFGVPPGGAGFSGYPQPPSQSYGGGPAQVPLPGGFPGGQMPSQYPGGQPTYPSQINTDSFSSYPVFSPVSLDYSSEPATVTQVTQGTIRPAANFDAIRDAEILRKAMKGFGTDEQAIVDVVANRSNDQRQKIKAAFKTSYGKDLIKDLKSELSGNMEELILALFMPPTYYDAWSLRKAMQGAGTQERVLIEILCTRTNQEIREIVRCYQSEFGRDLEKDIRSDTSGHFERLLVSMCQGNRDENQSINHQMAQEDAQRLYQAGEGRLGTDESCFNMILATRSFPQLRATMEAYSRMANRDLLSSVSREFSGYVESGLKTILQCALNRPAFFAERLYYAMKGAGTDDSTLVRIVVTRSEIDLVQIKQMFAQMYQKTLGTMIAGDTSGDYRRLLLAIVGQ
UniProt P50995, whole entry, looked up: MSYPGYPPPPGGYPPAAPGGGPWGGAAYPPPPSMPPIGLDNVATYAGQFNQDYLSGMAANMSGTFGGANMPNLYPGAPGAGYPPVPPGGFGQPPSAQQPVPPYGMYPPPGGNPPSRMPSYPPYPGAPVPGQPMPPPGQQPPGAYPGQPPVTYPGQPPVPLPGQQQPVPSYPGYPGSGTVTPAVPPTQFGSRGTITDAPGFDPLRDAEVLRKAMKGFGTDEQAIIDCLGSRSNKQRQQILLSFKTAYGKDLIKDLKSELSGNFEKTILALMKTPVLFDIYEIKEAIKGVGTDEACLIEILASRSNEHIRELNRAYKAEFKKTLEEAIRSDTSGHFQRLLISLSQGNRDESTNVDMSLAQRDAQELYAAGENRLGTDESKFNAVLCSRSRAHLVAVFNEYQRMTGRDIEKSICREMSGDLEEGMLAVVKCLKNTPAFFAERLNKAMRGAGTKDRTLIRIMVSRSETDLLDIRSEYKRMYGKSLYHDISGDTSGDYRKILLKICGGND
UniProt P15144: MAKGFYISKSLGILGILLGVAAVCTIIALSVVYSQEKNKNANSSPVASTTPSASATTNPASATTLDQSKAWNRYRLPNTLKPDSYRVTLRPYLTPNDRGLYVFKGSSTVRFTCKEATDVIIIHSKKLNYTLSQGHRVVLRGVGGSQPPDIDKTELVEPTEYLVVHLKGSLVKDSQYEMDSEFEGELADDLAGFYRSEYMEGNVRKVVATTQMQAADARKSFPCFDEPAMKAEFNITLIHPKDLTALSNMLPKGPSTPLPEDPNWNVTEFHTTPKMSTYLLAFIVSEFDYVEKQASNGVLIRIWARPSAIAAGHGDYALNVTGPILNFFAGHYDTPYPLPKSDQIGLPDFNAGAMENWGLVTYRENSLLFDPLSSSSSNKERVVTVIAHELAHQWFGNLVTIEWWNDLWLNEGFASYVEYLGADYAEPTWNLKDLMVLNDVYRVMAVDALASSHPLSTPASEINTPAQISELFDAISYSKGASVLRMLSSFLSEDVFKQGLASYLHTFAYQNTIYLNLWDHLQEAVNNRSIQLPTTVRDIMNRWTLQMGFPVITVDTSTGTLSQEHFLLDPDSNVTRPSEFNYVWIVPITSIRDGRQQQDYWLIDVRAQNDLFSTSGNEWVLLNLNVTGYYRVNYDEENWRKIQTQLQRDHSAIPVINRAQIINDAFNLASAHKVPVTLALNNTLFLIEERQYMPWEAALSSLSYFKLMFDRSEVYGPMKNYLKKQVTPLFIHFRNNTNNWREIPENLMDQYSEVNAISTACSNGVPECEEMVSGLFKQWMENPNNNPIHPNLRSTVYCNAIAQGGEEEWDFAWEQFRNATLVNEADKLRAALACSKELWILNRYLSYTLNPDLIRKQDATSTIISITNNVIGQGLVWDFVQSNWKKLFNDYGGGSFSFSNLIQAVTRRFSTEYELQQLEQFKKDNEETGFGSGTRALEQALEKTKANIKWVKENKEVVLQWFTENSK
UniProt P02654: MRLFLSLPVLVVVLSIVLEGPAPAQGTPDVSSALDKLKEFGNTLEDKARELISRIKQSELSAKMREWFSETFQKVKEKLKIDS
UniProt Q8N6T3: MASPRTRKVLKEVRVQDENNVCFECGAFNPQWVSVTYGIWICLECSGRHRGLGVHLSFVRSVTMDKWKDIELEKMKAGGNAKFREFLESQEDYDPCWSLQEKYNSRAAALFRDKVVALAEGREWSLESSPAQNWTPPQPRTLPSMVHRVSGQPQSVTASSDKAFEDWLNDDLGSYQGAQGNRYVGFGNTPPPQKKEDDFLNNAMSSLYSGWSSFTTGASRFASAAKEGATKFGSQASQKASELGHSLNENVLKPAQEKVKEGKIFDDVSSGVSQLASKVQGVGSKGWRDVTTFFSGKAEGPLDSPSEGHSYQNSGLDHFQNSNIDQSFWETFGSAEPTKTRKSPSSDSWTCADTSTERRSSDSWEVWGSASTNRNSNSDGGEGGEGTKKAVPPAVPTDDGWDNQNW
UniProt P52565: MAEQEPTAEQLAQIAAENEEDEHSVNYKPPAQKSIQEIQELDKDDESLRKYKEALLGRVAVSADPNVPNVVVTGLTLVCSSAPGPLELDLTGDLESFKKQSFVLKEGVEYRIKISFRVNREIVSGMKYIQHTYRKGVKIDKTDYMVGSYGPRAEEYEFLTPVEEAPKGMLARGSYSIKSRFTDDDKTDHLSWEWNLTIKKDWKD

The targets below were run with COC1=CC=C(C=C1)CN2C=CC3=C2C=C(C=C3)C(=O)NO (assay: log2 fold change, soluble protein after heating vs DMSO (PISA); higher = thermal stabilisation; K562 cells, 10 uM, 30 min; active = over 0.2 and 3.5 SD of the protein, either way, in both replicates (recomputed)).
In short: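 Soluble protein was defined as the supernatant after 21,000xg for 90 min. It came from K562 cells at 2×10^6 cells/mL given 10 μM compound for 30 min, heated in aliquots for 3 min across 48°C-58°C, pooled, and extracted in PBS with 0.5% NP-40 at 4°C, and was quantified by TMTpro 16plex LC-MS/MS with equalised channel sums. Thermal stability against control samples, from duplicates, is reported as log2 fold change.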

log2 fold change, inactive:
ARAP1 (UniProt Q96P48) 0.002
ARHGAP1 (UniProt Q07960) -0.016
AP3D1 isoform 5 (UniProt O14617) 0.029
ARGLU1 (UniProt Q9NWB6) 0.066
ANK3 (UniProt Q12955) 0.063
AP5M1 (UniProt Q9H0R1) -0.037
APOBEC3G (UniProt Q9HC16) -0.012
ARHGEF12 (UniProt Q9NZN5) -0.088
AQR (UniProt O60306) 0.145
ANKRD54 (UniProt Q6NXT1) -0.068
AP1B1 (UniProt Q10567) 0.035
ANXA7 (UniProt P20073) 0.051
ANKRD17 (UniProt O75179) 0.003
APTX (UniProt Q7Z2E3) 0.038
ARHGAP12 (UniProt Q8IWW6) 0.325
ANXA4 (UniProt P09525) 0.01
ARHGAP6 (UniProt O43182) 0.082
ANXA11 (UniProt P50995) 0.004
AP2M1 (UniProt C9JTK4) 0.016
ANPEP (UniProt P15144) -0.126
APOM (UniProt O95445) 0.03
APOH (UniProt P02749) 0.03
AP2S1 (UniProt P53680) -0.031
APRT (UniProt P07741) -0.005
APOC1 (UniProt P02654) -0.108
ARFGAP1 (UniProt Q8N6T3) 0.03
ANGPTL3 (UniProt Q9Y5C1) -0.076
ARHGDIA (UniProt P52565) -0.048
APOBEC3C (UniProt Q9NRW3) -0.023
ANO10 (UniProt Q9NW15) -0.016
ANK2 (UniProt Q01484) -0.054
ARHGDIB (UniProt P52566) -0.012
AP4B1 (UniProt Q9Y6B7) 0.036
ARF3 (UniProt P61204) -0.075
AP2A1 (UniProt O95782) 0.044
AP2A2 isoform 2 (UniProt O94973) 0.009
ANTKMT (UniProt Q9BQD7) 0.105
APOBEC3D (UniProt Q96AK3) 0.024
ANAPC5 (UniProt Q9UJX4) 0.007

Retrieved one by one from above:
log2 fold change, inactive:
AP2A1 (UniProt O95782) 0.044
ARHGDIB (UniProt P52566) -0.012
APOBEC3D (UniProt Q96AK3) 0.024
